Data: publication PMC11867528
These are yes or no findings as the source states them, for the method shown. For some assays here: Binding seen in cells or lysates may run through a third protein. Some results given as binding are weak or reduced against the parent protein; the word gives no strength. For some assays here: Tags and fused reporters may be left off the sequences shown.

The chains behind the UniProt entries cited, without tags or fusion partners.
UniProt P12504: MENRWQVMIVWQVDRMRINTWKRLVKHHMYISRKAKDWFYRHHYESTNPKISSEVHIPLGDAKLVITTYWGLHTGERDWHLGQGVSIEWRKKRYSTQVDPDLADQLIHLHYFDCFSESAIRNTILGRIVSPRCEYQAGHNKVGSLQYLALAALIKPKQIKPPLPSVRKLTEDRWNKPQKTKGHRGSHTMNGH
UniProt Q9HC16: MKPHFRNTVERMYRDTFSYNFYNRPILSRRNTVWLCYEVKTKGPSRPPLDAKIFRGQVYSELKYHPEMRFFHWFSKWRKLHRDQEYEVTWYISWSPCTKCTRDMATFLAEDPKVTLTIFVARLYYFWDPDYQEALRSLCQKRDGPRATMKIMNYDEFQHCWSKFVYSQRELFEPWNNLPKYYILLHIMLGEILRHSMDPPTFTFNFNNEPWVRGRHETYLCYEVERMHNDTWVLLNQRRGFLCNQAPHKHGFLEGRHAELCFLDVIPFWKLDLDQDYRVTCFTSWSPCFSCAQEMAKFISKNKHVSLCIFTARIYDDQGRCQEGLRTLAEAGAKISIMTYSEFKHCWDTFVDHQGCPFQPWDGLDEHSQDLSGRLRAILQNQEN

T1: DDX52 (DExD-box helicase 52) (human (endogenous in Jurkat J6)) (UniProt Q9Y2R4)
T1 sequence: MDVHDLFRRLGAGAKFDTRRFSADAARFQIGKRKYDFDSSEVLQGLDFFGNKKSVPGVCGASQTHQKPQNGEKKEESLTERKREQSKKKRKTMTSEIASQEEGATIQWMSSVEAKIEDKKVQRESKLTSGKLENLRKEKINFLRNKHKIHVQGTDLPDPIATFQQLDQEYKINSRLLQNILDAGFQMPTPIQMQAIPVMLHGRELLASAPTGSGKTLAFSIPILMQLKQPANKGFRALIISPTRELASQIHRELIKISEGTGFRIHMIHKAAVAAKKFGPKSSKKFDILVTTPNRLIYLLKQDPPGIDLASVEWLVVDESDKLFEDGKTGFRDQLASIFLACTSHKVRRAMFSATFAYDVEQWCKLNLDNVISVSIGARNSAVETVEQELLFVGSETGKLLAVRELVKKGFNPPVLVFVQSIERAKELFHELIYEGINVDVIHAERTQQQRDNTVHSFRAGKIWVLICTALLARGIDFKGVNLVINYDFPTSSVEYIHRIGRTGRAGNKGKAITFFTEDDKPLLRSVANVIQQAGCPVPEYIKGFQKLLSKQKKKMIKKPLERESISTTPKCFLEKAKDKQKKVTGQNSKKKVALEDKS

B1: GST-DDX52 (protein, UniProt Q9Y2R4 1-599)
chain: MDVHDLFRRLGAGAKFDTRRFSADAARFQIGKRKYDFDSSEVLQGLDFFGNKKSVPGVCGASQTHQKPQNGEKKEESLTERKREQSKKKRKTMTSEIASQEEGATIQWMSSVEAKIEDKKVQRESKLTSGKLENLRKEKINFLRNKHKIHVQGTDLPDPIATFQQLDQEYKINSRLLQNILDAGFQMPTPIQMQAIPVMLHGRELLASAPTGSGKTLAFSIPILMQLKQPANKGFRALIISPTRELASQIHRELIKISEGTGFRIHMIHKAAVAAKKFGPKSSKKFDILVTTPNRLIYLLKQDPPGIDLASVEWLVVDESDKLFEDGKTGFRDQLASIFLACTSHKVRRAMFSATFAYDVEQWCKLNLDNVISVSIGARNSAVETVEQELLFVGSETGKLLAVRELVKKGFNPPVLVFVQSIERAKELFHELIYEGINVDVIHAERTQQQRDNTVHSFRAGKIWVLICTALLARGIDFKGVNLVINYDFPTSSVEYIHRIGRTGRAGNKGKAITFFTEDDKPLLRSVANVIQQAGCPVPEYIKGFQKLLSKQKKKMIKKPLERESISTTPKCFLEKAKDKQKKVTGQNSKKKVALEDKS

Key:
[1] = target: T1, DDX52 (DExD-box helicase 52) (human (endogenous in Jurkat J6)); assay: co-IP; Jurkat J6 cells infected with HIV-1 NL4.3 at 0.5 MOI, harvested 48 hpi; lysates precleared with IgG, primary antibody (DDX52, Vif or A3G) overnight at 4 °C, Agarose A/G beads 4 h; washed thrice with 0.1% NP40 in 1X PBS; immunoblot
MBP-Vif (HIV-1) = MBP-Vif (HIV-1) (UniProt P12504); assay: pull-down; MBP-Vif bound to MBP affinity resin, incubated with purified GST or GST-DDX52 for 6 h at 4 °C; washed thrice with 0.1% NP40 in 1X PBS; eluted with MBP elution buffer; immunoblot with GST and MBP antibodies; both purified

Row | Molecule | binding [1] | binding (MBP-Vif (HIV-1))
1 | APOBEC3G (from UniProt Q9HC16 1-384) | binds | 
2 | B1 |  | binds
